The results in this text go back to publication doi:10.1101/2023.01.22.525087.

Sequences of proteins named here, by UniProt entry; tags and fusion partners are left off. Residues count along the entry.
UniProt P27467, residues 19-352: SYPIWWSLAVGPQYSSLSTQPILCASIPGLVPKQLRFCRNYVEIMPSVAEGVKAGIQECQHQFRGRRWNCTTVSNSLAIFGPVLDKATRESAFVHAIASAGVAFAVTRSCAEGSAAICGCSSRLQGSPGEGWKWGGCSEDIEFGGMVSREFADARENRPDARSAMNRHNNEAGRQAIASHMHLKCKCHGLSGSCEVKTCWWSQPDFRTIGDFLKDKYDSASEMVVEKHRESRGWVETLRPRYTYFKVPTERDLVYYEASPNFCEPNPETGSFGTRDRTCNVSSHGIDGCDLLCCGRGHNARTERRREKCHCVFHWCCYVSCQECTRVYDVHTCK
UniProt P02769, residues 25-607: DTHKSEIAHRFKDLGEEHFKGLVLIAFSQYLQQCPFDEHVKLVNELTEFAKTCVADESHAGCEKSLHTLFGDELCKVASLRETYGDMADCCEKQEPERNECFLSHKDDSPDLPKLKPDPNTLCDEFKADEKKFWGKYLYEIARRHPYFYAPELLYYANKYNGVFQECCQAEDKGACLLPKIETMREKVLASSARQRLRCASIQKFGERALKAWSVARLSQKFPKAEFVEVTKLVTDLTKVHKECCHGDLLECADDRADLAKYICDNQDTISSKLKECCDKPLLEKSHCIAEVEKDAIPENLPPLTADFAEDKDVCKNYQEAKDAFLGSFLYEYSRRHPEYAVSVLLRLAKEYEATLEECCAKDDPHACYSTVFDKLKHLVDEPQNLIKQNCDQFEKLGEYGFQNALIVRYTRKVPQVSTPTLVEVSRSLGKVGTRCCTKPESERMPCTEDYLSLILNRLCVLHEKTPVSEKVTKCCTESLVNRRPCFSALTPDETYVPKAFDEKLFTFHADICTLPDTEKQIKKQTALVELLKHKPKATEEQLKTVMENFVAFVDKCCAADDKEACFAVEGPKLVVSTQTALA

Results are given in words; binding and its absence hold for the method and conditions named. Binding seen in cells or lysates may run through a third protein. Some binding calls cover weakened binding; strength is not graded here.

The target in this experiment is Wnt3a (UniProt P27467). The experiment is described as follows: co-IP.

Turning to “bovine serum albumin (from UniProt P02769 25-607)”, the binding entry is “no binding (tested: 5 mg/mL BSA)”.

B1: afamin (protein, UniProt P43652 22-599)
chain: LPTQPRDIENFNSTQKFIEDNIEYITIIAFAQYVQEATFEEMEKLVKDMVEYKDRCMADKTLPECSKLPNNVLQEKICAMEGLPQKHNFSHCCSKVDAQRRLCFFYNKKSDVGFLPPFPTLDPEEKCQAYESNRESLLNHFLYEVARRNPFVFAPTLLTVAVHFEEVAKSCCEEQNKVNCLQTRAIPVTQYLKAFSSYQKHVCGALLKFGTKVVHFIYIAILSQKFPKIEFKELISLVEDVSSNYDGCCEGDVVQCIRDTSKVMNHICSKQDSISSKIKECCEKKIPERGQCIINSNKDDRPKDLSLREGKFTDSENVCQERDADPDTFFAKFTFEYSRRHPDLSIPELLRIVQIYKDLLRNCCNTENPPGCYRYAEDKFNETTEKSLKMVQQECKHFQNLGKDGLKYHYLIRLTKIAPQLSTEELVSLGEKMVTAFTTCCTLSEEFACVDNLADLVFGELCGVNENRTINPAVDHCCKTNFAFRRPCFESLKADKTYVPPPFSQDLFTFHADMCQSQNEELQRKTDRFLVNLVKLKHELTDEELQSLFTNFANVVDKCCKAESPEVCFNEESPKIGN
With B1, the binding result is “binds”.
